No constants are given. Whether binding was seen depends on the method and setting. In cells and extracts the contact can be indirect. These calls come from enrichment with a bait or labelling near it, and not all partners need be listed. Where a sequence is shown, tags or fusion partners need not be part of it.
B1: interferon-activable protein 202 (protein, UniProt Q9R002 1-445)
chain: MSNRNLRSSTNSEFSEGQHQTPSSDSSGHGEDQPQASPGPNKKSHTPKKNISKGAVLHEKPMTVMVLTATEPFNYKEGKENMFHATVATESQYYRVKVFNMDLKEKFTENKFITISKYFNSSGILEINETATVSEAAPNQIIEVPKNIIRSAKETLKISKIKELDSGTLIYGVFAVEKKKVNDKSITFKIKDNEDNIKVVWDKKQHNINYEKGDKLQLFSFHLRKGNGKPILHSGNHSFIKGEKLLKESFEGDGYHKGPKQVVALKATKLFTYDSIKSKKMFHATVATDTEFFRVMVFEENLEKKFIPGNTIALSDYFGMYGSLAIHEYSSVSEVKSQNKEDSSSSDERLIEHLKICDLHLQTKERLVDGEFKVYRKSTGNNCICYGIWDDTGAMKVVVSGQLTSVNCEIGNTIRLVCFELTSNADEWFLRSTRYSYMEVIMPEK
B2: transcription termination factor 2 (protein, UniProt Q5NC05 1-1138)
chain: MDLVKCPEHGDACFLKTGVRDGPNKGKSFYVCRTNTCGFVQATDIPVSHCLLHEEFVVELQGLFLPQDKKEWRLFFRCARTKAEGKQWCGNVPWRQDPNPKELSVTSKPQQPSESQLHSPSQPRNPFRVLNKNQKTLERKQFVEEGERKTADKKLRENNEQLLDQRKEQKPKSNSRMEKDPSSDLVATRQSGGDREEQEKSKFQPKTKKAEGMASKQGHGEVLQGIPKGPHMSESESRGVPNKPETLREKETQLLVPSVPGQNPESKVQKEGHVSREPLKNGEAPSAQVTQRGLAQGPLQGPSKTWRPVPEAPAAPELCSGMAHHATSSSEDSEDDGVSSRPGSPLLFDSTVDSQKKGSLQHSDQSVQRQMPAASGVSKKGDSSDPAAQRANLTTQLKQKKGTLAAVNIQALPDKGEKLLKQIQALEDALSALALSPEQGTKEKCSAQEPEQSNITKAAAAPLHLVPPQPLPRPLIQPASSLGLKAGRQETPEGASQCSGGHMNQHHLYNVWKITSEAIDELHRSLKSCPGETAVAEDPAGLKVPLLLHQKQALAWLLWRESQKPQGGILADDMGLGKTLTMIALILTKKNQQKSKEKERSEPVTWLSKNDSSVFTSSGTLIVCPASLIHHWKNEVEKRVTSNRLRIYLYHGPNRSRHAKVLSTYDIVITTYSLLAKEIPTTKQEGEVPGANLSVEGTSAPLLQVVWARIILDEAHNVKNPRVQTSIAVCKLQAQARWAVTGTPIQNNLLDMYSLMKFLRCSPFDEFSLWKSQVDNGSMKGGERLSILTKSLLLRRTKDQLDSTGKPLVALPARRCQLHRLKLSEDERAVYDIFLARSRSALQSYLKRQEGRGSHHGRSPDNPFSRVAQEFGSSVSQGCPAADSQRPSTVHVLSQLLRLRQCCCHLSLLKSALDPTELESEGLVLSLEEQLSALTLSKVDVSEPSPTVSLNGTCFKAELFDDTRRSTKVSSLLAELEAIQKGPGSQKSVIVSQWTSMLQVVALHLKKNRLTYATIDGSVNPKQRMDLVEAFNHSQGPQVMLISLLAGGVGLNLTGGNHLFLLDMHWNPSLEDQACDRIYRVGQKKDVVIHRFVCEGTVEEKILQLQEKKKDLAKQVLSGSEGPVTKLTLADLKILFGI
B3: DNA ligase 3 (protein, UniProt P97386 1-1015)
chain: MTLAFKILFPRNLCALGRKELCLFPEQNRWAAISQFSQWSETNLLGGCCLLQRRKPVLALQRGHLRPRATHLTFWPGSHVGLCTGPCAMAEQRFCVDYAKRGTAGCKKCKEKIVKGVCRIGKVVPNPFSESGGDMKEWYHIKCMFEKLERARATTKKIEDLTELEGWEELEDNEKEQISQHIADLSSKAAATPKKKAAVQAKLTTTGQVTSPVKGASFITSTNPRKFSGFSAAKPNNSEQAPSSPAPGTSLSASKCDPKHKDCLLREFRKLCAMVAENPSYNTKTQIIHDFLQKGSTGGFSDGFHGDVYLTVKLLLPGVIKSVYNLNDKQIVKLFSRIFNCNPDDMARDLEQGDVSETIRIFFEQSKSFPPAAKSLLTIQEVDAFLLHLSKLTKEDEQQQALQDIASRCTANDLKCIIRLIKHDLKMNSGAKHVLDALDPNAYEAFKASRNLQDVVERVLHNEQEVEKDPGRRRALRVQASLMTPVQPMLAEACKSIEYAMKKCPNGMFSEIKYDGERVQVHKKGDHFSYFSRSLKPVLPHKVAHFKDYIPKAFPGGQSMILDSEVLLIDNNTGKPLPFGTLGVHKKAAFQDANVCLFVFDCIYFNDVSLMDRPLCERRKFLHDNMVEIRNRIMFSEMKQVTKASDLADMINRVIREGLEGLVLKDVKGTYEPGKRHWLKVKKDYLNEGAMADTADLVVLGAFYGQGSKGGMMSIFLMGCYDPDSQKWCTVTKCAGGHDDATLARLQKELVMVKISKDPSKIPSWLKINKIYYPDFIVPDPKKAAVWEITGAEFSRSEAHTADGISIRFPRCTRIRDDKDWKSATNLPQLKELYQLSKDKADFAVVAGDEASPTTGGSSGENEGTAGSAGPCKGPPSKSSASAKTTEQKLNSPSSRGGIKPIPKHSPMKPGEKLAVKSSPVKVGMKRKATDETPCLKKVLLDVFTGVRLYLPPSTPDFKRLKRYFVAFDGDLVQEFDMGSATHVLGNREKNTDAQLVSSEWIWACIRKRRLIAPC
B4: lymphocyte-specific helicase (protein, UniProt Q60848 1-821)
chain: MAEQTEPAVITPAMLEEEEQLEAAGLEKERKMLEEAQKSWDRESTEIRYRRLQHLLEKSNIYSKFLLTKMEQQQLEEQKKKEKLEKKKRSLKLTEGKSLVDGNGEKPVMKKKRGREDESYNISEVMSKEEILSVAKKHKDNEDESSSTTSLCVEDIQKNKDSNSMIKDRLSQTVRQNSKFFFDPVRKCNGQPVPFQQPKHFTGGVMRWYQVEGMEWLRMLWENGINGILADEMGLGKTVQCIATIALMIQRGVPGPFLVCGPLSTLPNWMAEFKRFTPEIPTLLYHGTREDRRKLVKNIHKRQGTLQIHPVVVTSFEIAMRDQNALQHCYWKYLIVDEGHRIKNMKCRLIRELKRFNADNKLLLTGTPLQNNLSELWSLLNFLLPDVFDDLKSFESWFDITSLSETAEDIIAKEREQNVLHMLHQILTPFLLRRLKSDVALEVPPKREVVVYAPLCNKQEIFYTAIVNRTIANMFGSCEKETVELSPTGRPKRRSRKSINYSELDQFPSELEKLISQIQPEVNRERTVVEGNIPIESEVNLKLRNIMMLLRKCCNHPYMIEYPIDPVTQEFKIDEELVTNSGKFLILDRMLPELKKRGHKVLVFSQMTSMLDILMDYCHLRNFIFSRLDGSMSYSEREKNIYSFNTDPDVFLFLVSTRAGGLGINLTAADTVIIYDSDWNPQSDLQAQDRCHRIGQTKPVVVYRLVTANTIDQKIVERAAAKRKLEKLIIHKNHFKGGQSGLSQSKNFLDAKELMELLKSRDYEREVKGSREKVISDEDLELLLDRSDLIDQMKASRPIKGKTGIFKILENSEDSSAECLF
B5: heterogeneous nuclear ribonucleoprotein L (protein, UniProt Q8R081 1-586)
chain: MSRRLLPRAEKRRRRLEQRQQPDEQLRRAGAMVKMAAAGGGGGGGRYYGGGNEGGRAPKRLKTENAGDQHGGGGGGGSGAAGGGGGENYDDPHKTPASPVVHIRGLIDGVVEADLVEALQEFGPISYVVVMPKKRQALVEFEDVLGACNAVNYAADNQIYIAGHPAFVNYSTSQKISRPGDSDDSRSVNSVLLFTILNPIYSITTDVLYTICNPCGPVQRIVIFRKNGVQAMVEFDSVQSAQRAKASLNGADIYSGCCTLKIEYAKPTRLNVFKNDQDTWDYTNPNLSGQGDPGSNPNKRQRQPPLLGDHPAEYGGPHGGYHSHYHDEGYGPPPPHYEGRRMGPPVGGHRRGPSRYGPQYGHPPPPPPPPDYGPHADSPVLMVYGLDQSKMNCDRVFNVFCLYGNVEKVKFMKSKPGAAMVEMADGYAVDRAITHLNNNFMFGQKMNVCVSKQPAIMPGQSYGLEDGSCSYKDFSESRNNRFSTPEQAAKNRIQHPSNVLHFFNAPLEVTEENFFEICDELGVKRPTSVKVFSGKSERSSSGLLEWDSKSDALETLGFLNHYQMKNPNGPYPYTLKLCFSTAQHAS
B6: UDP-N-acetylglucosamine-peptide N-acetylglucosaminyltransferase 110 kDa subunit (protein, UniProt Q8CGY8 1-1046)
chain: MASSVGNVADSTEPTKRMLSFQGLAELAHREYQAGDFEAAERHCMQLWRQEPDNTGVLLLLSSIHFQCRRLDRSAHFSTLAIKQNPLLAEAYSNLGNVYKERGQLQEAIEHYRHALRLKPDFIDGYINLAAALVAAGDMEGAVQAYVSALQYNPDLYCVRSDLGNLLKALGRLEEAKACYLKAIETQPNFAVAWSNLGCVFNAQGEIWLAIHHFEKAVTLDPNFLDAYINLGNVLKEARIFDRAVAAYLRALSLSPNHAVVHGNLACVYYEQGLIDLAIDTYRRAIELQPHFPDAYCNLANALKEKGSVAEAEDCYNTALRLCPTHADSLNNLANIKREQGNIEEAVRLYRKALEVFPEFAAAHSNLASVLQQQGKLQEALMHYKEAIRISPTFADAYSNMGNTLKEMQDVQGALQCYTRAIQINPAFADAHSNLASIHKDSGNIPEAIASYRTALKLKPDFPDAYCNLAHCLQIVCDWTDYDERMKKLVSIVAEQLEKNRLPSVHPHHSMLYPLSHGFRKAIAERHGNLCLDKINVLHKPPYEHPKDLKLSDGRLRVGYVSSDFGNHPTSHLMQSIPGMHNPDKFEVFCYALSPDDGTNFRVKVMAEANHFIDLSQIPCNGKAADRIHQDGIHILVNMNGYTKGARNELFALRPAPIQAMWLGYPGTSGALFMDYIITDQETSPAEVAEQYSEKLAYMPHTFFIGDHANMFPHLKKKAVIDFKSNGHIYDNRIVLNGIDLKAFLDSLPDVKIVKMKCPDGGDNPDSSNTALNMPVIPMNTIAEAVIEMINRGQIQITINGFSISNGLATTQINNKAATGEEVPRTIIVTTRSQYGLPEDAIVYCNFNQLYKIDPSTLQMWANILKRVPNSVLWLLRFPAVGEPNIQQYAQNMGLPQNRIIFSPVAPKEEHVRRGQLADVCLDTPLCNGHTTGMDVLWAGTPMVTMPGETLASRVAASQLTCLGCLELIAKSRQEYEDIAVKLGTDLEYLKKIRGKVWKQRISSPLFNTKQYTMELERLYLQMWEHYAAGNKPDHMIKPVEVTESA
B7: prolyl 4-hydroxylase subunit alpha-1 (protein, UniProt Q60715-2 18-534)
chain: HPGFFTSIGQMTDLIHNEKDLVTSLKDYIKAEEDKLEQIKKWAEKLDRLTSTATKDPEGFVGHPVNAFKLMKRLNTEWSELENLILKDMSDGFISNLTIQRQYFPNDEDQVGAAKALFRLQDTYNLDTNTISKGNLPGVQHKSFLTAEDCFELGKVAYTEADYYHTELWMEQALTQLEEGELSTVDKVSVLDYLSYAVYQQGDLDKALLLTKKLLELDPEHQRANGNLVYFEYIMSKEKDANKSASGDQSDQKTAPKKKGIAVDYLPERQKYEMLCRGEGIKMTPRRQKRLFCRYHDGNRNPKFILAPAKQEDEWDKPRIIRFHDIISDAEIEIVKDLAKPRLSRATVHDPETGKLTTAQYRVSKSAWLSGYEDPVVSRINMRIQDLTGLDVSTAEELQVANYGVGGQYEPHFDFARKDEPDAFRELGTGNRIATWLFYMSDVSAGGATVFPEVGASVWPKKGTAVFWYNLFASGEGDYSTRHAACPVLVGNKWVSNKWLHERGQEFRRPCTLSELE

The chains behind the UniProt entries cited, without tags or fusion partners.
UniProt P20263: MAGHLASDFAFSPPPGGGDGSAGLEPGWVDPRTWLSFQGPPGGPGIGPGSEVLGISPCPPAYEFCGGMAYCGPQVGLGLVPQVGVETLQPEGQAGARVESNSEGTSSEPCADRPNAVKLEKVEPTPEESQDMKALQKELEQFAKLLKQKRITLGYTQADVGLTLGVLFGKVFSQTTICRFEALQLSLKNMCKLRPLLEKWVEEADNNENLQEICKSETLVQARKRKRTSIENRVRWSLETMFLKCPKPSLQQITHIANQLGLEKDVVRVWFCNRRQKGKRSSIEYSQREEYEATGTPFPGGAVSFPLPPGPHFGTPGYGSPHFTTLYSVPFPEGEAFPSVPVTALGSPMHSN

Biological target: Oct4-FTAP fusion protein (mouse) (UniProt P20263)
Assay: affinity purification with mass spectrometry; one-step purification on anti-FLAG M2 Dynal beads from whole-cell extracts of Oct4-FTAP ESCs against unmodified control cells (AB2.2); 150 mM NaCl, 0.1% NP-40, 90 min, 4°C; elution with AcTEV protease; three independent purifications; LC-MS/MS

| binding | Binder |
| --- | --- |
| binds | B1 |
| binds | B2 |
| binds | B3 |
| binds | B4 |
| binds | B5 |
| binds | B6 |
| binds | B7 |

From article PMC2860244
